Measured values: article PMC5622110
These are yes or no findings as the source states them, for the method shown. Binding seen in cells or lysates may run through a third protein. Some results given as binding are weak or reduced against the parent protein; the word gives no strength.

Sequences of proteins named here, by UniProt entry; tags and fusion partners are left off. A change or cut given only in a name is not applied to a line headed by its entry. A line that says so, or that is headed by a name, gives the form on record, which may keep a tag or linker.
UniProt P13569: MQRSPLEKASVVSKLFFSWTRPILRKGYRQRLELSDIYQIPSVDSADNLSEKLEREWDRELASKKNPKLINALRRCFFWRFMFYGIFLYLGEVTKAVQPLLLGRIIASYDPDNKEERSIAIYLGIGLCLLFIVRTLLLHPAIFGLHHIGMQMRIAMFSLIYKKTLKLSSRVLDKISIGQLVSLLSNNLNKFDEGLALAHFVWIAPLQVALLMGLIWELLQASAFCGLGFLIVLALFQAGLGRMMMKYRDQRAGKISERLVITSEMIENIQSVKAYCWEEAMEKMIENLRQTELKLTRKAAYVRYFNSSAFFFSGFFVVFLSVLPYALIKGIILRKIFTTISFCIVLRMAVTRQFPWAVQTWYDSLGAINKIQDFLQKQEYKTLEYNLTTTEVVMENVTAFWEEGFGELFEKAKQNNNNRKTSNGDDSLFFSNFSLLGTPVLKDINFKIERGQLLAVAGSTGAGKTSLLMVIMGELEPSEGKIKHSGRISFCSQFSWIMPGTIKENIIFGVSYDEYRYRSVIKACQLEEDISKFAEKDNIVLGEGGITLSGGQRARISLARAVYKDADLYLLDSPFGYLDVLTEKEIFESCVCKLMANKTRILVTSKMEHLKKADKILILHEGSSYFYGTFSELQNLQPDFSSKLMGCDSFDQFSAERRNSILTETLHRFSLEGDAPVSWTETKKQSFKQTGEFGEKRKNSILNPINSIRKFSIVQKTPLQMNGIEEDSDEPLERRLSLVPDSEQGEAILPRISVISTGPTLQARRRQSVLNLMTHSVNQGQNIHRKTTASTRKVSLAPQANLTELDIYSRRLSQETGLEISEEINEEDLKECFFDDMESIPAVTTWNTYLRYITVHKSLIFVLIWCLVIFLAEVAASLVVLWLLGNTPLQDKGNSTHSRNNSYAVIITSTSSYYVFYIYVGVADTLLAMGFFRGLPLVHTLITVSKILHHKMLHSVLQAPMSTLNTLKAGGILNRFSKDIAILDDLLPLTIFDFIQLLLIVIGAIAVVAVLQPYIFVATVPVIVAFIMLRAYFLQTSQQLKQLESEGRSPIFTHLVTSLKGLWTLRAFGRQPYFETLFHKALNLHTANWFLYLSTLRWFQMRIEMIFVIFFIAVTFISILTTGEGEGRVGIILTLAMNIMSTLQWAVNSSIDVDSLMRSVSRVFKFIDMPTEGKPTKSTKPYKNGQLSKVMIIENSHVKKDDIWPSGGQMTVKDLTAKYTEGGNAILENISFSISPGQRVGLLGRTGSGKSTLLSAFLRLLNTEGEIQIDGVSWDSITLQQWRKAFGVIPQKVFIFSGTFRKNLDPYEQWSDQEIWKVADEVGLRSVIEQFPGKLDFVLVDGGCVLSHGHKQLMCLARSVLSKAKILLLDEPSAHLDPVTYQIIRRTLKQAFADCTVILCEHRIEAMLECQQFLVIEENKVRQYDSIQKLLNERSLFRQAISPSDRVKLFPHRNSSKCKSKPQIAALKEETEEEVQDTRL
F508del-CFTR (P13569, form named): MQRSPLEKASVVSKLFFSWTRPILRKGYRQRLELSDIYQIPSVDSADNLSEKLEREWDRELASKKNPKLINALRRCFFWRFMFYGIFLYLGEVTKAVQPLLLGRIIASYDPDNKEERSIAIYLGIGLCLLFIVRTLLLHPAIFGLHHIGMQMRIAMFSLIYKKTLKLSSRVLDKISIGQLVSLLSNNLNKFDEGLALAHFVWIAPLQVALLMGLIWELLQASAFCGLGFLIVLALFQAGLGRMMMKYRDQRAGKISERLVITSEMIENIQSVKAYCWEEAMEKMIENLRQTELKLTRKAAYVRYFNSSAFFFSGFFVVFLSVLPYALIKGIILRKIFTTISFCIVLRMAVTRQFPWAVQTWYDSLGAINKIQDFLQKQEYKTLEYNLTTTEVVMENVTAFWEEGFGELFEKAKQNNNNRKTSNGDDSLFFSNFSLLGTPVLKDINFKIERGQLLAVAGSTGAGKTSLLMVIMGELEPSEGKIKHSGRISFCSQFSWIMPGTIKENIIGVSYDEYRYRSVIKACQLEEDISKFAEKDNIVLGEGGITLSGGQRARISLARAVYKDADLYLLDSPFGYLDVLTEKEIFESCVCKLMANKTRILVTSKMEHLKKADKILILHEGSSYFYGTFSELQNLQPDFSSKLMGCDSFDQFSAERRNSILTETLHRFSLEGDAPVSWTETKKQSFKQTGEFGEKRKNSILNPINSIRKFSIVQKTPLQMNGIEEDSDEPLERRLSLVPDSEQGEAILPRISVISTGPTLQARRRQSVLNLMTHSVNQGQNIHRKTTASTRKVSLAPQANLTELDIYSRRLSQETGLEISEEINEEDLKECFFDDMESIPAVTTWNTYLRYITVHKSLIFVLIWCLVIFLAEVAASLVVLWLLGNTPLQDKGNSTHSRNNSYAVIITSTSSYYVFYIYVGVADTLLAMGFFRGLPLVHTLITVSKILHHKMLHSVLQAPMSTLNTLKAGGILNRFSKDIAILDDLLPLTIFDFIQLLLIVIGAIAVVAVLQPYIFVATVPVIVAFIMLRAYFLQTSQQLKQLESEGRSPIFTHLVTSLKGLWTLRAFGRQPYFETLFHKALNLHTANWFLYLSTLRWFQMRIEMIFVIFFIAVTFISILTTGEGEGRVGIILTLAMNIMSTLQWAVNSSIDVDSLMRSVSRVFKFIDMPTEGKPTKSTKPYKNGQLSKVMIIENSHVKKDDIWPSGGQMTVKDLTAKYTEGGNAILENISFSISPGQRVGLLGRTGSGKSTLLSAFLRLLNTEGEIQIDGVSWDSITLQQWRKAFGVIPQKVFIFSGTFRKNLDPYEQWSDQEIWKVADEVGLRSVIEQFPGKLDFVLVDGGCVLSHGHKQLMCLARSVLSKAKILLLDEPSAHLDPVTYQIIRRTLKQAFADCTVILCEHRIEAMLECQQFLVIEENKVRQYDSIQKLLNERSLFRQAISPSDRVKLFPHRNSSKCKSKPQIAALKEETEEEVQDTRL

What was measured:
[1] = molecular target: T1, TMEM16A (anoctamin 1, ANO1) (human (endogenous in CFBE)) (UniProt Q5XXA6); assay: co-IP; cells lysed in 0.5% CHAPS lysis buffer with protease inhibitors; 500 µg protein with 6 µg antibody and protein G agarose, 4 °C overnight; three washes; Western blot; CFBE cells (wt and dF508) by text and methods, HEK293 overexpressing cells by the legend of Figure 6
T1 sequence: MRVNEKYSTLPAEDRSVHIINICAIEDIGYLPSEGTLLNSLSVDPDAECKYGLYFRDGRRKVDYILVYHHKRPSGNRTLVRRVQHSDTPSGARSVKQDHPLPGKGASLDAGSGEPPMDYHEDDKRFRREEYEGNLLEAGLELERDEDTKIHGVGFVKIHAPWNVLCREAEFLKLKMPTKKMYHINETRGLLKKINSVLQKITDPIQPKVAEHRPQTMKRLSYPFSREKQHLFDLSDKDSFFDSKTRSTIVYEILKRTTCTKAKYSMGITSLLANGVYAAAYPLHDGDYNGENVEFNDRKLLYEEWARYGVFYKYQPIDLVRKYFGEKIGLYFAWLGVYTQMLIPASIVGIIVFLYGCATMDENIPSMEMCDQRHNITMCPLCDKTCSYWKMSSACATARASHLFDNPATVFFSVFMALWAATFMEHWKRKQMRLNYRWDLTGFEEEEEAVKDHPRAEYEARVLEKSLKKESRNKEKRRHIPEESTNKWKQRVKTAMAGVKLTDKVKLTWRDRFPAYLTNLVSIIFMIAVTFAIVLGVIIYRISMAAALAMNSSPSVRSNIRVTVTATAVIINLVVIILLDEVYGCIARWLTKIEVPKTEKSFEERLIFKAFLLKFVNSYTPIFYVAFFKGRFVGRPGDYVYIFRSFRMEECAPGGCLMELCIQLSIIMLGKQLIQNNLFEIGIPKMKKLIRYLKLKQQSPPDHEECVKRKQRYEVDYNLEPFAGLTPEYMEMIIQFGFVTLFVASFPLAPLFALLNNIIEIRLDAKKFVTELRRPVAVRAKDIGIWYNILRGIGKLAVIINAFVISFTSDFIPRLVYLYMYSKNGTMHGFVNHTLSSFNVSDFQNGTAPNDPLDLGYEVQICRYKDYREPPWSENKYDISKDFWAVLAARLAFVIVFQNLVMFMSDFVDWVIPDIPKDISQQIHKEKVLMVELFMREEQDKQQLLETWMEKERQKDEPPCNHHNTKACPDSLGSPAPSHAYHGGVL

[2] = molecular target: T2, TMEM16F (UniProt Q4KMQ2); assay: as above
T2 sequence: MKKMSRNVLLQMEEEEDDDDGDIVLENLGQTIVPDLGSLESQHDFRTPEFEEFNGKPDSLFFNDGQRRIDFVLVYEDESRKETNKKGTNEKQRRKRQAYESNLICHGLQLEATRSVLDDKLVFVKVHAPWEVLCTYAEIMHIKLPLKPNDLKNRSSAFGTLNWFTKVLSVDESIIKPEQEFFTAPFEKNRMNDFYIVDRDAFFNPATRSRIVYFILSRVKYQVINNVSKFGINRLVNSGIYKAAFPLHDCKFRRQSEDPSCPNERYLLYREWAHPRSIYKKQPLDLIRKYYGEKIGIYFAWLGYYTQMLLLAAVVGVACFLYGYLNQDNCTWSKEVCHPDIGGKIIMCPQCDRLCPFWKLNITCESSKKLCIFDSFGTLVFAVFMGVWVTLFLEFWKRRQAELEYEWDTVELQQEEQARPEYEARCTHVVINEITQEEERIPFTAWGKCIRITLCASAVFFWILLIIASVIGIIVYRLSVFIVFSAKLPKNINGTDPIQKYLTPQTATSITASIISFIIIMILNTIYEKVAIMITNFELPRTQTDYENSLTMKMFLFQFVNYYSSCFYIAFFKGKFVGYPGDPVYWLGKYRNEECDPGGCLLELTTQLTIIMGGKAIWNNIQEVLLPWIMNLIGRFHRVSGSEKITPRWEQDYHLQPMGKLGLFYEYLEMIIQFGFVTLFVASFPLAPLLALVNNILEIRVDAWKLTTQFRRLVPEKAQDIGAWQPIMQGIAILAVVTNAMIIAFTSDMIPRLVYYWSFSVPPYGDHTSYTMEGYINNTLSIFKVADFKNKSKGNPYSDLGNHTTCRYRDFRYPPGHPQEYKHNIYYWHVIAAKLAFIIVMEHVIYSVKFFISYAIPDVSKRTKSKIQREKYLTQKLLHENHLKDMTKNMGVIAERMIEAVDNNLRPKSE

binding [1]	binding [2]	Substance
binds	no binding	Cystic Fibrosis Transmembrane Conductance Regulator, wild type (from UniProt P13569 1-1480)
binds		F508del-CFTR (from UniProt P13569 1-1480)
